No constants are given. Whether binding was seen depends on the method and setting. In cells and extracts the contact can be indirect. Some results given as binding are weak or reduced against the parent protein; the word gives no strength.
How the values were obtained:
Assay in all cases: co-IP; DYRK4 truncation plasmids and pHBV1.3 co-transfected in Huh7 cells for 48 h; FLAG-beads enrichment (Fig. 5F)
[1] = target: T1, DYRK4 C-domain (401-520 aa) (UniProt Q9NR20)
T1 sequence: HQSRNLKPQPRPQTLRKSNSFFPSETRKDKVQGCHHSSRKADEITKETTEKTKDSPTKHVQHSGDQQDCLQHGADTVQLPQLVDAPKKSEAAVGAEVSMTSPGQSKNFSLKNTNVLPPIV

[2] = target: T2, DYRK4 K-domain (102-400 aa), kinase domain (UniProt Q9NR20)
T2 sequence: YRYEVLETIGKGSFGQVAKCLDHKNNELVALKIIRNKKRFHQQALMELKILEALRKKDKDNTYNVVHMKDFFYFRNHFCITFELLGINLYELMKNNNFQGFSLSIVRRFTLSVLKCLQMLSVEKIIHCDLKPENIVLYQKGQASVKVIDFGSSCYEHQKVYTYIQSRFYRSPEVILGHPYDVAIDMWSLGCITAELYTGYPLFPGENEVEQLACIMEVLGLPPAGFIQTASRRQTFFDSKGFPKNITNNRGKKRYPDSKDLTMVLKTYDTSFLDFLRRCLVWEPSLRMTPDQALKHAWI

[3] = target: T3, DYRK4 N-domain (1-101 aa) (UniProt Q9NR20)
T3 sequence: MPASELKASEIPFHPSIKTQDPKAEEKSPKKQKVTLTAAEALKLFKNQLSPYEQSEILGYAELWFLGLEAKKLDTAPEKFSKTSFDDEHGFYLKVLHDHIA

B1: TAB1 in the co-IP with DYRK4 truncations (Huh7 cells) (protein, UniProt Q15750 1-504)
chain: MAAQRRSLLQSEQQPSWTDDLPLCHLSGVGSASNRSYSADGKGTESHPPEDSWLKFRSENNCFLYGVFNGYDGNRVTNFVAQRLSAELLLGQLNAEHAEADVRRVLLQAFDVVERSFLESIDDALAEKASLQSQLPEGVPQHQLPPQYQKILERLKTLEREISGGAMAVVAVLLNNKLYVANVGTNRALLCKSTVDGLQVTQLNVDHTTENEDELFRLSQLGLDAGKIKQVGIICGQESTRRIGDYKVKYGYTDIDLLSAAKSKPIIAEPEIHGAQPLDGVTGFLVLMSEGLYKALEAAHGPGQANQEIAAMIDTEFAKQTSLDAVAQAVVDRVKRIHSDTFASGGERARFCPRHEDMTLLVRNFGYPLGEMSQPTPSPAPAAGGRVYPVSVPYSSAQSTSKTSVTLSLVMPSQGQMVNGAHSASTLDEATPTLTNQSPTLTLQSTNTHTQSSSSSSDGGLFRSRPAHSLPPGEDGRVEPYVDFAEFYRLWSVDHGEQSVVTAP
Which results are given for B1?
binding [1]: no binding; binding [2]: binds; binding [3]: no binding
